Results deposited as PubChem BioAssay AID1259425 (University of Nebraska Medical Center, 2018).

Screen: 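Compare each knockdown with KSR1 silencing using changes in marker transcripts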 (primary screen)
Cell system: HCT116 human colon cancer cells
Reagents: siRNA pool against human genes, 50 nM siRNA
Read-out: 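After 50 nM siRNA pool, branched-DNA assay measures six marker transcripts per well, minus blank, normalised to the geometric mean of two housekeeping transcripts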
Reading the numbers: BNIP3L mRNA: higher = more BNIP3L transcript after knockdown; NDRG1 mRNA: higher = more NDRG1 transcript after knockdown
The whole screen tested about 14,000 reagents; shown is a random part of them. A reagent listed more than once was tested more than once; the source does not tell the runs apart. Not all columns of the deposit are shown. Not given: the time to read-out.

Gene | BNIP3L mRNA, set 1 | NDRG1 mRNA, set 1
POLRMT (RNA polymerase mitochondrial) | 0.102 | 1.1
HERC2 (HECT and RLD domain containing E3 ubiquitin protein ligase 2) | 0.074 | 0.122
FASLG (Fas ligand) | 0.0244 | 0.147
OR5P2 (olfactory receptor family 5 subfamily P member 2) | 0.197 | 0.337
ATP2B4 (ATPase plasma membrane Ca2+ transporting 4) | 0.127 | 0.145
TRPM6 | 0.104 | 0.0719
CACNA1S (calcium voltage-gated channel subunit alpha1 S) | 0.159 | 0.112
WIPF1 (WAS/WASL interacting protein family member 1) | 0.0935 | 0.329
ERCC2 (ERCC excision repair 2, TFIIH core complex helicase subunit) | 0.0645 | 0.147
SIRT6 (sirtuin 6) | 0.0879 | 0.3
NFKBID (NFKB inhibitor delta) | 0.0972 | 0.131
SLC18A1 | 0.0927 | 0.284
LMAN1 (lectin, mannose binding 1) | 0.0484 | 0.205
IFNA4 (interferon alpha 4) | 0.123 | 0.397
DNASE2B (deoxyribonuclease 2 beta) | 0.0477 | 0.173
RAB1B (RAB1B, member RAS oncogene family) | 0.0368 | 0.614
PNRC1 (proline rich nuclear receptor coactivator 1) | 0.0917 | 0.175
CHRND (cholinergic receptor nicotinic delta subunit) | 0.0587 | 0.478
ZNF646 (zinc finger protein 646) | 0.0858 | 0.26
TP63 (tumor protein p63) | 0.0558 | 0.0995
ZZZ3 (zinc finger ZZ-type containing 3) | 0.148 | 0.0865
PPIL1 (peptidylprolyl isomerase like 1) | 0.0785 | 0.372

4 neighbouring reagents already listed, quoted:
Gene | BNIP3L mRNA, set 1 | NDRG1 mRNA, set 1
FASLG (Fas ligand) | 0.0244 | 0.147
OR5P2 (olfactory receptor family 5 subfamily P member 2) | 0.197 | 0.337
ATP2B4 (ATPase plasma membrane Ca2+ transporting 4) | 0.127 | 0.145
TRPM6 | 0.104 | 0.0719

Further entries:
Gene | BNIP3L mRNA, set 1 | NDRG1 mRNA, set 1
TRDMT1 (tRNA aspartic acid methyltransferase 1) | 0.11 | 0.307
SRPK3 (SRSF protein kinase 3) | 0.148 | 0.102
SNED1 (sushi, nidogen and EGF like domains 1) | 0.127 | 0.109
ICOSLG (inducible T cell costimulator ligand) | 0.128 | 0.636
PAX3 (paired box 3) | 0.131 | 0.303
CDK13 (cyclin dependent kinase 13) | 0.0867 | 0.225
MCL1 (MCL1 apoptosis regulator, BCL2 family member) | 0.104 | 0.246
RTN4RL1 (reticulon 4 receptor like 1) | 0.0919 | 0.111
ADRA1B (adrenoceptor alpha 1B) | 0.152 | 0.265
ADRA1B (adrenoceptor alpha 1B) | 0.143 | 0.237
SIRT4 (sirtuin 4) | 0.0647 | 0.524
NRBP2 (nuclear receptor binding protein 2) | 0.167 | 0.167
SUGT1P4-STRA6LP-CCDC180 (SUGT1P4-STRA6LP-CCDC180 readthrough) | 0.0739 | 0.154
TAF6L (TATA-box binding protein associated factor 6 like) | 0.0518 | 0.355
ZDHHC2 (zDHHC palmitoyltransferase 2) | 0.152 | 0.406
CCPG1 (cell cycle progression 1) | 0.103 | 0.158
ZDHHC4 (zDHHC palmitoyltransferase 4) | 0.13 | 0.233
NOS1 (nitric oxide synthase 1) | 0.116 | 0.111
SFXN3 (sideroflexin 3) | 0.129 | 0.527
GRM5 (glutamate metabotropic receptor 5) | 0.151 | 0.145
GSS (glutathione synthetase) | 0.118 | 0.376
MTO1 (mitochondrial tRNA translation optimization 1) | 0.0802 | 0.292
PRR13 (proline rich 13) | 0.185 | 0.744
ACSS1 (acyl-CoA synthetase short chain family member 1) | 0.25 | 1.05
RBL1 (RB transcriptional corepressor like 1) | 0.126 | 0.262
GRIN2C (glutamate ionotropic receptor NMDA type subunit 2C) | 0.0856 | 0.126
RELCH | 0.188 | 0.127
IMPG1 (interphotoreceptor matrix proteoglycan 1) | 0.12 | 0.365
